Source: ChEMBL document CHEMBL1157379, “Transcriptional response of Candida parapsilosis following exposure to farnesol” (2007)
The source gives many values for each of these; only a part stands here.

Columns and labels:
Assay type in all cases: functional
Candida parapsilosis [1] = assay: Increase in GLT1 gene expression in Candida parapsilosis CLIB214 at 50 uM after 2 hrs by microarray based transcriptional profiling relative to control
Candida parapsilosis [2] = assay: Increase in CGD gene ortholog accession number orf19.5015 expression in Candida parapsilosis CLIB214 at 50 uM after 2 hrs by microarray based transcriptional profiling relative to control
Candida parapsilosis [3] = assay: Increase in GenBank accession number NP_943636.1 expression in Candida parapsilosis CLIB214 at 50 uM after 2 hrs by microarray based transcriptional profiling relative to control
Candida parapsilosis [4] = assay: Increase in CGD gene ortholog accession number orf19.1317 expression in Candida parapsilosis CLIB214 at 50 uM after 2 hrs by microarray based transcriptional profiling relative to control
Candida parapsilosis [5] = assay: Increase in VPS4 gene expression in Candida parapsilosis CLIB214 at 50 uM after 2 hrs by microarray based transcriptional profiling relative to control
Candida parapsilosis [6] = assay: Increase in CGD gene ortholog accession number orf19.1933 expression in Candida parapsilosis CLIB214 at 50 uM after 2 hrs by microarray based transcriptional profiling relative to control
Candida parapsilosis [7] = assay: Decrease in MAF1 gene expression in Candida parapsilosis CLIB214 at 50 uM after 2 hrs by microarray based transcriptional profiling relative to control
Candida parapsilosis [8] = assay: Decrease in CGD gene ortholog accession number orf19.3451 expression in Candida parapsilosis CLIB214 at 50 uM after 2 hrs by microarray based transcriptional profiling relative to control
Candida parapsilosis [9] = assay: Decrease in CGD gene ortholog accession number orf19.4911 expression in Candida parapsilosis CLIB214 at 50 uM after 2 hrs by microarray based transcriptional profiling relative to control
Candida parapsilosis [10] = assay: Decrease in AOX1 gene expression in Candida parapsilosis CLIB214 at 50 uM after 2 hrs by microarray based transcriptional profiling relative to control
Candida parapsilosis [11] = assay: Decrease in CGD gene ortholog accession number orf19.6134 expression in Candida parapsilosis CLIB214 at 50 uM after 2 hrs by microarray based transcriptional profiling relative to control
Candida parapsilosis [12] = assay: Increase in CGD gene ortholog accession number orf19.4757 expression in Candida parapsilosis CLIB214 at 50 uM after 2 hrs by microarray based transcriptional profiling relative to control
Candida parapsilosis [13] = assay: Increase in CGD gene ortholog accession number orf19.631 expression in Candida parapsilosis CLIB214 at 50 uM after 2 hrs by microarray based transcriptional profiling relative to control
Candida parapsilosis [14] = assay: Increase in MVD gene expression in Candida parapsilosis CLIB214 at 50 uM after 2 hrs by microarray based transcriptional profiling relative to control
Candida parapsilosis [15] = assay: Decrease in CGD gene ortholog accession number orf19.1028 expression in Candida parapsilosis CLIB214 at 50 uM after 2 hrs by microarray based transcriptional profiling relative to control
Candida parapsilosis [16] = assay: Decrease in CGD gene ortholog accession number orf19.1482 expression in Candida parapsilosis CLIB214 at 50 uM after 2 hrs by microarray based transcriptional profiling relative to control
Candida parapsilosis [17] = assay: Decrease in CGD gene ortholog accession number orf19.804 (SGD ortholog YPR011C) expression in Candida parapsilosis CLIB214 at 50 uM after 2 hrs by microarray based transcriptional profiling relative to control
Candida parapsilosis [18] = assay: Decrease in CGD gene ortholog accession number orf19.5755 expression in Candida parapsilosis CLIB214 at 50 uM after 2 hrs by microarray based transcriptional profiling relative to control
Candida parapsilosis [19] = assay: Decrease in CGD gene ortholog accession number orf19.833 expression in Candida parapsilosis CLIB214 at 50 uM after 2 hrs by microarray based transcriptional profiling relative to control
Candida parapsilosis [20] = assay: Decrease in CGD gene ortholog accession number orf19.5780 expression in Candida parapsilosis CLIB214 at 50 uM after 2 hrs by microarray based transcriptional profiling relative to control
Candida parapsilosis [21] = assay: Increase in GRP2 gene expression in Candida parapsilosis CLIB214 at 50 uM after 2 hrs by microarray based transcriptional profiling relative to control
Candida parapsilosis [22] = assay: Increase in CGD gene ortholog accession number orf19.7196 expression in Candida parapsilosis CLIB214 at 50 uM after 2 hrs by microarray based transcriptional profiling relative to control
Candida parapsilosis [23] = assay: Increase in CGD gene ortholog accession number orf19.2715 expression in Candida parapsilosis CLIB214 at 50 uM after 2 hrs by microarray based transcriptional profiling relative to control
Candida parapsilosis [24] = assay: Increase in CGD gene ortholog accession number orf19.6555 expression in Candida parapsilosis CLIB214 at 50 uM after 2 hrs by microarray based transcriptional profiling relative to control
Candida parapsilosis [25] = assay: Increase in CGD gene ortholog accession number orf19.3015 expression in Candida parapsilosis CLIB214 at 50 uM after 2 hrs by microarray based transcriptional profiling relative to control
Candida parapsilosis [26] = assay: Decrease in KEL1 gene expression in Candida parapsilosis CLIB214 at 50 uM after 2 hrs by microarray based transcriptional profiling relative to control
Candida parapsilosis [27] = assay: Decrease in PCK1 gene expression in Candida parapsilosis CLIB214 at 50 uM after 2 hrs by microarray based transcriptional profiling relative to control
Candida parapsilosis [28] = assay: Decrease in CGD gene ortholog accession number orf19.6462 expression in Candida parapsilosis CLIB214 at 50 uM after 2 hrs by microarray based transcriptional profiling relative to control
Candida parapsilosis [29] = assay: Decrease in GenBank accession number XP_460297.1 expression in Candida parapsilosis CLIB214 at 50 uM after 2 hrs by microarray based transcriptional profiling relative to control
Candida parapsilosis [30] = assay: Decrease in CGD gene ortholog accession number orf19.5040 expression in Candida parapsilosis CLIB214 at 50 uM after 2 hrs by microarray based transcriptional profiling relative to control
Candida parapsilosis [31] = assay: Decrease in CGD gene ortholog accession number orf19.6476 expression in Candida parapsilosis CLIB214 at 50 uM after 2 hrs by microarray based transcriptional profiling relative to control
Candida parapsilosis [32] = assay: Decrease in CGD gene ortholog accession number orf19.355 expression in Candida parapsilosis CLIB214 at 50 uM after 2 hrs by microarray based transcriptional profiling relative to control
Candida parapsilosis [33] = assay: Increase in ASC1 gene expression in Candida parapsilosis CLIB214 at 50 uM after 2 hrs by microarray based transcriptional profiling relative to control
Candida parapsilosis [34] = assay: Increase in CGD gene ortholog accession number orf19.2917 expression in Candida parapsilosis CLIB214 at 50 uM after 2 hrs by microarray based transcriptional profiling relative to control
Candida parapsilosis [35] = assay: Increase in BGL2 gene expression in Candida parapsilosis CLIB214 at 50 uM after 2 hrs by microarray based transcriptional profiling relative to control
Candida parapsilosis [36] = assay: Decrease in MNL1 gene expression in Candida parapsilosis CLIB214 at 50 uM after 2 hrs by microarray based transcriptional profiling relative to control

## CC(C)=CCC/C(C)=C/CC/C(C)=C/CO [FARNESOL]
Candida parapsilosis [1]
  fold change (FC): 2.23
Candida parapsilosis [2]
  fold change (FC): 2.21
Candida parapsilosis [3]
  fold change (FC): 2.18
Candida parapsilosis [4]
  fold change (FC): 2.11
Candida parapsilosis [5]
  fold change (FC): 1.58
Candida parapsilosis [6]
  fold change (FC): 1.58
Candida parapsilosis [7]
  fold change (FC): 2.14
Candida parapsilosis [8]
  fold change (FC): 1.94
Candida parapsilosis [9]
  fold change (FC): 1.97
Candida parapsilosis [10]
  fold change (FC): 2
Candida parapsilosis [11]
  fold change (FC): 2.15
Candida parapsilosis [12]
  fold change (FC): 1.72
Candida parapsilosis [13]
  fold change (FC): 1.51
Candida parapsilosis [14]
  fold change (FC): 1.91
Candida parapsilosis [15]
  fold change (FC): 1.6
Candida parapsilosis [16]
  fold change (FC): 1.5
Candida parapsilosis [17]
  fold change (FC): 1.66
Candida parapsilosis [18]
  fold change (FC): 1.66
Candida parapsilosis [19]
  fold change (FC): 1.61
Candida parapsilosis [20]
  fold change (FC): 1.62
Candida parapsilosis [21]
  fold change (FC): 15.54
Candida parapsilosis [22]
  fold change (FC): 1.7
Candida parapsilosis [23]
  fold change (FC): 1.67
Candida parapsilosis [24]
  fold change (FC): 1.64
Candida parapsilosis [25]
  fold change (FC): 1.67
Candida parapsilosis [26]
  fold change (FC): 1.55
Candida parapsilosis [27]
  fold change (FC): 3.36
Candida parapsilosis [28]
  fold change (FC): 1.65
Candida parapsilosis [29]
  fold change (FC): 1.72
Candida parapsilosis [30]
  fold change (FC): 1.73
Candida parapsilosis [31]
  fold change (FC): 1.81
Candida parapsilosis [32]
  fold change (FC): 1.82
Candida parapsilosis [33]
  fold change (FC): 2.63
Candida parapsilosis [34]
  fold change (FC): 2.52
Candida parapsilosis [35]
  fold change (FC): 2.4
Candida parapsilosis [36]
  fold change (FC): 1.88
